Results from patent US9448225B2, “Responsive luminescent lathanide complexes” (University of Durham, priority 2009, dated 2016).
At least one compound was matched to its structure with a doubt left.

Test: Apparent binding constant for lactate from change in Eu3+ emission band intensity ratio (616/686 nm) as a function of added anion
Settings: lactate over citrate; from the Table 1 affinity constants

## CN1CCN(C(CCC(=O)[O-])C(=O)[O-])CCN(Cc2ccc3c(=O)c4ccccc4oc3n2)CCN(C(CCC(=O)[O-])C(=O)[O-])CC1.[Eu+3] (stereo not shown) [[Eu.L^9]^−]
  lactate/citrate ratio (of affinity constants): 30:1
